# Experimental data taken from the supplement of paper PMC4604168 (melanoma cell lines).
# The list shows a part of the results. Many values rest on one well or one pass, so single values are uncertain.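 The apoptosis fraction was the count of cleaved-PARP antibody-stained nuclei relative to all DNA-stained nuclei, imaged in 1,536-well plates. Screening doses were set so most cells survived, and baseline and induced cleaved-PARP levels vary greatly across cell lines.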
# Columns and labels:
# Experiment in all cases: cleaved PARP positive nuclei fraction relative to DMSO control; melanoma cells; higher = more apoptosis
# Settings in all cases: library dose: low library concentration; 72 h
# [1] = test system: WM115
# [2] = test system: WM1716
# [3] = test system: WM1745
# [4] = test system: WM3526
# [5] = test system: WM3619
# [6] = test system: WM451Lu
Compound,cleaved PARP positive nuclei fraction [1] [%],cleaved PARP positive nuclei fraction [2] [%],cleaved PARP positive nuclei fraction [3] [%],cleaved PARP positive nuclei fraction [4] [%],cleaved PARP positive nuclei fraction [5] [%],cleaved PARP positive nuclei fraction [6] [%]
"CC[C@]1(O)C[C@H]2CN(CCc3c([nH]c4ccccc34)[C@@](C(=O)OC)(c3cc4c(cc3OC)N(C=O)[C@H]3[C@@](O)(C(=O)OC)[C@H](OC(C)=O)[C@]5(CC)C=CCN6CC[C@]43[C@@H]65)C2)C1 [vincristine] + O=c1cc(-c2cccc3c2Sc2ccccc2S3)oc(N2CCOCC2)c1 [KU55933] (first compound 0.0001 µM, partner dose 1 µM)",1970,298,111,101,173,496
"Cc1cc(Nc2cc(N3CCN(C)CC3)nc(Sc3ccc(NC(=O)C4CC4)cc3)n2)n[nH]1 [Tozasertib] + OCCn1cc(-c2cnc3nnn(Cc4ccc5ncccc5c4)c3n2)cn1 [PF04217903] (first compound 0.006 µM, partner dose 1 µM)",61.8,64.1,99.8,60.1,121,47.8
"N#CC[C@H](C1CCCC1)n1cc(-c2ncnc3[nH]ccc23)cn1 [ruxolitinib] + O=C(/C=C/c1cccnc1)NCCCCC1CCN(C(=O)c2ccccc2)CC1 [FK866] (first compound 1 µM, partner dose 0.01 µM)",63.9,31.4,161,82.2,98,78.5
"COc1cc([C@@H]2c3cc4c(cc3[C@@H](O[C@@H]3O[C@@H]5CO[C@@H](C)O[C@H]5[C@H](O)[C@H]3O)[C@H]3COC(=O)[C@H]23)OCO4)cc(OC)c1O [etoposide] + CC(C)(C)c1cnc(CSc2cnc(NC(=O)C3CCNCC3)s2)o1 [SNS-032] (first compound 0.02 µM, partner dose 0.01 µM)",141,97.1,102,53.3,108,62.3
"O=C(Nc1cc(C(F)(F)F)cc(C(F)(F)F)c1)c1cc(Cl)ccc1O + Nc1ccn([C@@H]2O[C@H](CO)[C@@H](O)C2(F)F)c(=O)n1 [gemcitabine] (first compound 0.016 µM, partner dose 0.0004 µM)",111,78.9,115,77.2,107,83.1
"O=C(/C=C/c1cccnc1)NCCCCC1CCN(C(=O)c2ccccc2)CC1 + Cc1cc(Nc2cc(N3CCN(C)CC3)nc(/C=C/c3ccccc3)n2)n[nH]1 [ENMD2076] (first compound 0.01 µM, partner dose 0.04 µM)",156,80.8,99.9,152,87.6,82.9
"N#CC[C@H](C1CCCC1)n1cc(-c2ncnc3[nH]ccc23)cn1 [ruxolitinib] + Cn1c(Nc2ccc(C(F)(F)F)cc2)nc2cc(Oc3ccnc(-c4ncc(C(F)(F)F)[nH]4)c3)ccc21 [CHIR265] (first compound 1 µM, partner dose 0.08 µM)",210,84,114,28.8,95.6,52.9
"Cc1cc(Nc2cc(N3CCN(C)CC3)nc(Sc3ccc(NC(=O)C4CC4)cc3)n2)n[nH]1 [Tozasertib] + Cn1nnc2c(C(N)=O)ncn2c1=O [temozolomide] (first compound 0.006 µM, partner dose 2 µM)",146,123,98.6,311,99.6,101
"Cc1cn(-c2cc(NC(=O)c3ccc(C)c(Nc4nccc(-c5cccnc5)n4)c3)cc(C(F)(F)F)c2)cn1 [nilotinib] + CS(=O)(=O)c1ccc(C(=O)Nc2ccc(Cl)c(-c3ccccn3)c2)c(Cl)c1 [vismodegib] (first compound 0.2 µM, partner dose 1 µM)",89.3,69.2,83.6,100,79.4,82.8
"O=C(Nc1cc(C(F)(F)F)cc(C(F)(F)F)c1)c1cc(Cl)ccc1O + CC(=O)c1c(C)c2cnc(Nc3ccc(N4CCNCC4)cn3)nc2n(C2CCCC2)c1=O [palbociclib] (first compound 0.016 µM, partner dose 0.04 µM)",50.4,107,116,84.9,154,69.1
"O=c1[nH]nc(Sc2ncc([N+](=O)[O-])s2)n1-c1ccc2c(c1)OCCO2 + CCN(CC)CCCCNc1ncc2cc(-c3cc(OC)cc(OC)c3)c(NC(=O)NC(C)(C)C)nc2n1 [PD173074] (first compound 0.2 µM, partner dose 0.1 µM)",170,103,87.5,68.6,113,92.5
"CCCCCCCCCCCCCCCCCCOP(=O)([O-])OC1CC[N+](C)(C)CC1 [Perifosine] + COc1ccc(-c2ccc3c(N4CCOCC4)nc(N4C[C@@H](C)O[C@@H](C)C4)nc3n2)cc1CO [KU0063794] (first compound 0.4 µM, partner dose 0.02 µM)",114,217,90.5,163,108,146
"O=C(Nc1cc(C(F)(F)F)cc(C(F)(F)F)c1)c1cc(Cl)ccc1O + CN(c1ncccc1CNc1nc(Nc2ccc3c(c2)CC(=O)N3)ncc1C(F)(F)F)S(C)(=O)=O [PF562271] (first compound 0.016 µM, partner dose 0.08 µM)",305,78.5,115,208,112,50
"O=C(/C=C/c1cccnc1)NCCCCC1CCN(C(=O)c2ccccc2)CC1 + C[C@]1(c2nc3c(C(N)=O)cccc3[nH]2)CCCN1 [Veliparib] (first compound 0.01 µM, partner dose 1.4 µM)",67.3,157,93.4,84.1,94.1,40.4
"CC[C@]1(O)C[C@H]2CN(CCc3c([nH]c4ccccc34)[C@@](C(=O)OC)(c3cc4c(cc3OC)N(C=O)[C@H]3[C@@](O)(C(=O)OC)[C@H](OC(C)=O)[C@]5(CC)C=CCN6CC[C@]43[C@@H]65)C2)C1 [vincristine] + Cc1cc([N+](=O)[O-])ccc1NS(=O)(=O)c1cc(Cl)ccc1Cl [FH535] (first compound 0.0001 µM, partner dose 1 µM)",2070,463,136,150,214,276
"Cc1cc(Nc2cc(N3CCN(C)CC3)nc(Sc3ccc(NC(=O)C4CC4)cc3)n2)n[nH]1 [Tozasertib] + COc1ccc(-c2ccc3c(N4CCOCC4)nc(N4C[C@@H](C)O[C@@H](C)C4)nc3n2)cc1CO [KU0063794] (first compound 0.006 µM, partner dose 0.02 µM)",155,119,95.2,174,84.8,297
"Cc1ccc(Nc2nccc(N(C)c3ccc4c(C)n(C)nc4c3)n2)cc1S(N)(=O)=O [Pazopanib] + Cc1cc(N2CCOCC2)cc2[nH]c(-c3c(NC[C@@H](O)c4cccc(Cl)c4)cc[nH]c3=O)nc12 [BMS536924] (first compound 0.4 µM, partner dose 0.2 µM)",104,86.6,115,35.1,204,47.5
"CCCCCCCCCCCCCCCCCCOP(=O)([O-])OC1CC[N+](C)(C)CC1 [Perifosine] + C=CCNC1=C2C[C@@H](C)C[C@H](OC)[C@H](O)[C@@H](C)/C=C(\C)[C@H](OC(N)=O)[C@@H](OC)/C=C\C=C(/C)C(=O)NC(=CC1=O)C2=O [Tanespimycin] (first compound 0.4 µM, partner dose 0.002 µM)",100,147,115,44.5,92.6,164
"COc1cc([C@@H]2c3cc4c(cc3[C@@H](O[C@@H]3O[C@@H]5CO[C@@H](C)O[C@H]5[C@H](O)[C@H]3O)[C@H]3COC(=O)[C@H]23)OCO4)cc(OC)c1O [etoposide] + O=C(O)[C@@H]1[O][Sb](=[O])([O][Sb]2(=[O])[O][C@H]([C@H](O)CO)[C@H](O)[C@H](C(=O)O)[O]2)[O][C@H]([C@H](O)CO)[C@@H]1O [stibogluconate] (first compound 0.02 µM, partner dose 2 µM)",101,39.9,109,94.6,97.2,101
"N#CC[C@H](C1CCCC1)n1cc(-c2ncnc3[nH]ccc23)cn1 [ruxolitinib] + Nc1ccn([C@@H]2O[C@H](CO)[C@@H](O)C2(F)F)c(=O)n1 [gemcitabine] (first compound 1 µM, partner dose 0.0004 µM)",113,94.6,117,77.6,137,327
"O=C(/C=C/c1cccnc1)NCCCCC1CCN(C(=O)c2ccccc2)CC1 + CC(C)(C)c1cnc(CSc2cnc(NC(=O)C3CCNCC3)s2)o1 [SNS-032] (first compound 0.01 µM, partner dose 0.01 µM)",247,127,99.4,61.8,176,156
"CCCCCCCCCCCCCCCCCCOP(=O)([O-])OC1CC[N+](C)(C)CC1 [Perifosine] + CO[C@H]1C[C@@H]2CC[C@@H](C)[C@@](O)(O2)C(=O)C(=O)N2CCCC[C@H]2C(=O)O[C@H]([C@H](C)C[C@@H]2CC[C@@H](OCCO)[C@H](OC)C2)CC(=O)[C@H](C)/C=C(\C)[C@@H](O)[C@@H](OC)C(=O)[C@H](C)C[C@H](C)/C=C/C=C/C=C/1C [everolimus] (first compound 0.4 µM, partner dose 0.02 µM)",97,70,109,113,113,183

# Some of the entries so far, with bars between the fields.
Compound | cleaved PARP positive nuclei fraction [1] [%] | cleaved PARP positive nuclei fraction [2] [%] | cleaved PARP positive nuclei fraction [3] [%] | cleaved PARP positive nuclei fraction [4] [%] | cleaved PARP positive nuclei fraction [5] [%] | cleaved PARP positive nuclei fraction [6] [%]
O=C(Nc1cc(C(F)(F)F)cc(C(F)(F)F)c1)c1cc(Cl)ccc1O + Nc1ccn([C@@H]2O[C@H](CO)[C@@H](O)C2(F)F)c(=O)n1 [gemcitabine] (first compound 0.016 µM, partner dose 0.0004 µM) | 111 | 78.9 | 115 | 77.2 | 107 | 83.1
O=C(/C=C/c1cccnc1)NCCCCC1CCN(C(=O)c2ccccc2)CC1 + Cc1cc(Nc2cc(N3CCN(C)CC3)nc(/C=C/c3ccccc3)n2)n[nH]1 [ENMD2076] (first compound 0.01 µM, partner dose 0.04 µM) | 156 | 80.8 | 99.9 | 152 | 87.6 | 82.9
N#CC[C@H](C1CCCC1)n1cc(-c2ncnc3[nH]ccc23)cn1 [ruxolitinib] + Cn1c(Nc2ccc(C(F)(F)F)cc2)nc2cc(Oc3ccnc(-c4ncc(C(F)(F)F)[nH]4)c3)ccc21 [CHIR265] (first compound 1 µM, partner dose 0.08 µM) | 210 | 84 | 114 | 28.8 | 95.6 | 52.9
Cc1cc(Nc2cc(N3CCN(C)CC3)nc(Sc3ccc(NC(=O)C4CC4)cc3)n2)n[nH]1 [Tozasertib] + Cn1nnc2c(C(N)=O)ncn2c1=O [temozolomide] (first compound 0.006 µM, partner dose 2 µM) | 146 | 123 | 98.6 | 311 | 99.6 | 101
Cc1cn(-c2cc(NC(=O)c3ccc(C)c(Nc4nccc(-c5cccnc5)n4)c3)cc(C(F)(F)F)c2)cn1 [nilotinib] + CS(=O)(=O)c1ccc(C(=O)Nc2ccc(Cl)c(-c3ccccn3)c2)c(Cl)c1 [vismodegib] (first compound 0.2 µM, partner dose 1 µM) | 89.3 | 69.2 | 83.6 | 100 | 79.4 | 82.8
O=C(Nc1cc(C(F)(F)F)cc(C(F)(F)F)c1)c1cc(Cl)ccc1O + CC(=O)c1c(C)c2cnc(Nc3ccc(N4CCNCC4)cn3)nc2n(C2CCCC2)c1=O [palbociclib] (first compound 0.016 µM, partner dose 0.04 µM) | 50.4 | 107 | 116 | 84.9 | 154 | 69.1
